The test system of this experiment is P388 leukemia ip, CD2F1 mice, survival T/C. Put plainly: NCI In Vivo Anticancer Drug Screen. Data for tumor model P388 Leukemia (intraperitoneal) in CD2F1 (CDF1) mice. The note with it: T/C endpoint: median survival time, higher T/C = longer survival.
Setting [1] is: dose: 200.0 mg/kg/injection, schedule: Q01DX005 (ip), vehicle: Klucel (hydroxypropylcellulose) (HPC).
[2] abbreviates: dose: 240.0 mg/kg/injection, schedule: Q01DX005 (ip), vehicle: saline with Tween-80.
Where [3] appears, read: dose: 100.0 mg/kg/injection, schedule: Q01DX005 (ip), vehicle: Klucel (hydroxypropylcellulose) (HPC).
Where [4] appears, read: dose: 200.0 mg/kg/injection, schedule: Q01DX005 (ip), vehicle: saline with Tween-80.
Setting [5] is: dose: 50.0 mg/kg/injection, schedule: Q01DX005 (ip), vehicle: Klucel (hydroxypropylcellulose) (HPC).

The list does not hold the whole screen: it is rich in T/C values a quarter to a half above the control, in often repeated tests (any T/C) and in doses without a T/C. Further doses and runs are listed elsewhere. T/C: endpoint of the treated group in % of that of the vehicle group. Some doses have a count of surviving animals in place of a T/C: the source holds a T/C of zero for them, seemingly a mark for toxic or unscored doses. Some survivor counts are full or nearly so, which does not show that the dose was tolerated: survival well below the control is almost never listed, so the zero probably covers shortened survival too. Survivors were counted at the toxicity check, usually on the fifth day, unless a day is given; later deaths do not show. Schedule codes are those of the source, taken here to give the interval after Q, in days (D) or hours (H), and the number of doses after X. Some entries hold several experiments; the values are given in rising order. Where survival is the endpoint, this PubChem deposit counts one and a half times the control or more as active, and values a quarter to a half above the control carry no call in these data; other NCI protocols may use other cut-offs.

In the case of `COc1cc2cc(c1Cl)N(C)C(=O)CC(OC(=O)C(C)N(C)C(=O)C(C)C)C1(C)OC1C(C)C1CC(O)(NC(=O)O1)C(OC)/C=C/C=C(C)C2OC` (stereo not drawn), the survivor count (dose: 0.12 mg/kg/injection, schedule: Q01DX009 (ip), vehicle: none) is given as 1 of 4; the survivor count (dose: 0.25 mg/kg/injection, schedule: Q01DX009 (ip), vehicle: none) is reported as 0 of 4; the survivor count (dose: 0.5 mg/kg/injection, schedule: Q01DX009 (ip), vehicle: none) is 0 of 4; the survivor count (dose: 1.0 mg/kg/injection, schedule: Q01DX009 (ip), vehicle: none) was 0 of 4; the survivor count (dose: 62.0 micrograms/kg/injection, schedule: Q01DX009 (ip), vehicle: none) is recorded as 2 of 4. Besides, the T/C by setting is: (dose: 1.0 micrograms/kg/injection, schedule: Q01DX009 (ip), vehicle: Klucel (hydroxypropylcellulose) (HPC)) 148 % of control; (dose: 2.0 micrograms/kg/injection, schedule: Q01DX009 (ip), vehicle: Klucel (hydroxypropylcellulose) (HPC)) 126 % of control; (dose: 7.75 micrograms/kg/injection, schedule: Q01DX009 (ip), vehicle: none) 141 % of control; (dose: 8.0 micrograms/kg/injection, schedule: Q01DX009 (ip), vehicle: Klucel (hydroxypropylcellulose) (HPC)) 140 % of control; (dose: 16.0 micrograms/kg/injection, schedule: Q01DX009 (ip), vehicle: Klucel (hydroxypropylcellulose) (HPC)) 144 % of control; (dose: 32.0 micrograms/kg/injection, schedule: Q01DX009 (ip), vehicle: Klucel (hydroxypropylcellulose) (HPC)) 128 % of control. Also, the T/C (dose: 32.0 micrograms/kg/injection, schedule: Q01DX009 (ip), vehicle: distilled water + alcohol) is 131 % of control.

As for `CNC(=O)NCCCCCCNC(=O)NC`, the survivor count under setting [1] is 0 of 6 and the survivor count (dose: 400.0 mg/kg/injection, schedule: Q01DX005 (ip), vehicle: Klucel (hydroxypropylcellulose) (HPC)) is 0 of 6.

As to `Cc1ccccc1N1C(=O)[N+](C)(C)N=C1[O-]`, the T/C (dose: 400.0 mg/kg/injection, schedule: Q04DX003 (ip), vehicle: saline) was 125 % of control.

In the case of `CSc1nc(NC2OC(CO)C(O)C(O)C2O)c(Cl)c(=O)n1C` (stereo not drawn), the survivor count under setting [2] is 2 of 6.

In the case of `COc1ccc2c(C)cc(N/N=C/c3ccccn3)nc2c1`, the T/C under setting [3] was 125 % of control. For the same molecule, under setting [1], the survivor count is 1 of 6, 2 of 6, 3 of 5.

Consider `C=C(C)C(=NC)NC(C)(C)C`, for which, under setting [1], the survivor count is listed as 4 of 5.

Consider `CC(=O)OC1CC(C)OC(OC2CCC3(C=O)C4C(O)C(=O)[C@]5(C)C(c6ccc(=O)oc6)CC[C@]5(O)C4CC[C@]3(O)C2)C1OC(C)=O` (stereo partly drawn), for which the survivor count (dose: 5.68 mg/kg/injection, schedule: Q01DX009 (ip), vehicle: distilled water + Tween-80 + alcohol) was 3 of 4.

In the case of `NNC(=O)CNc1ccc(F)c(Cl)c1`, under setting [2], the survivor count is recorded as 3 of 6.

`Cc1ccc(Cl)cc1S(=O)(=O)Cl`: the survivor count runs as follows: (dose: 50.0 mg/kg/injection, schedule: Q01DX009 (ip), vehicle: distilled water + Tween-80) 2 of 6; (dose: 100.0 mg/kg/injection, schedule: Q01DX009 (ip), vehicle: distilled water + Tween-80) 0 of 6; (dose: 200.0 mg/kg/injection, schedule: Q01DX009 (ip), vehicle: distilled water + Tween-80) 0 of 6; (dose: 400.0 mg/kg/injection, schedule: Q01DX009 (ip), vehicle: distilled water + Tween-80) 0 of 6.

Regarding `O=NNc1ccc(Oc2ccccc2)cn1`, the T/C runs as follows: (dose: 1.56 mg/kg/injection, schedule: Q01DX009 (ip), vehicle: saline) 127 % of control; (dose: 3.12 mg/kg/injection, schedule: Q01DX009 (ip), vehicle: saline) 134 and 145 % of control; (dose: 6.25 mg/kg/injection, schedule: Q01DX009 (ip), vehicle: saline) 148 % of control. Moreover, the survivor count is recorded as 6 of 6 (dose: 25.0 mg/kg/injection, schedule: Q01DX009 (ip), vehicle: saline) and 0 of 6 (dose: 50.0 mg/kg/injection, schedule: Q01DX009 (ip), vehicle: saline).

For the molecule `COC1=CC(=O)C(c2cc(OC(C)=O)c(OC)cc2OC(C)=O)=CC1=O`, the survivor count is given as 1 of 5 (dose: 50.0 mg/kg/injection, schedule: Q01DX005 (ip), vehicle: saline + Tween-80 + alcohol); 0 of 5 (dose: 100.0 mg/kg/injection, schedule: Q01DX005 (ip), vehicle: saline + Tween-80 + alcohol); 0 of 5 (dose: 200.0 mg/kg/injection, schedule: Q01DX005 (ip), vehicle: saline + Tween-80 + alcohol).

With `S=c1n(-c2ccc(Cl)cc2)c2nc3ccccc3nc(/c2=N\Nc2ccccc2)n1-c1ccccn1`, the survivor count under setting [4] was 2 of 6.

For the molecule `COC(=O)c1nc(N)nc(C(=O)OC)c1C(=O)c1cccs1`, the survivor count under setting [2] was 0 of 6.

Consider `Oc1c(Cl)cc(Cl)cc1C=Nc1ccc2c(ccc3c4ccccc4ccc23)c1`, for which the survivor count is, setting by setting: (dose: 200.0 mg/kg/injection, schedule: Q04DX003 (ip), vehicle: Klucel (hydroxypropylcellulose) (HPC)) 0 of 5; (dose: 400.0 mg/kg/injection, schedule: Q04DX003 (ip), vehicle: Klucel (hydroxypropylcellulose) (HPC)) 0 of 5.

For `O=[N+]([O-])c1c(Cl)nc(-c2ccccc2)nc1Cl`, the survivor count reads like this: under setting [5], 0 of 5; under setting [3], 0 of 5; under setting [1], 0 of 5.

As to `COc1cc(OC)c(NC(=O)C(Sc2nc(C)cc(C)c2C#N)c2ccccc2)cc1Cl` (stereo not drawn), the survivor count by setting is: (dose: 12.5 mg/kg/injection, schedule: Q01DX005 (ip), vehicle: Klucel (hydroxypropylcellulose) (HPC)) 6 of 6; under setting [5], 6 of 6.

On to `CCCSCCCCSCCC`, for which, where the note is “dose: 400.0 mg/kg/injection, schedule: Q01DX009 (ip), vehicle: saline with Tween-80”, the survivor count was 2 of 6.

As for `Cc1cccc([NH-])n1.Cc1cccc([NH-])n1.Cc1cccc([NH-])n1.Cc1cccc([NH-])n1.[Cl][Rh][Cl]`, the survivor count by setting is: (dose: 100.0 mg/kg/injection, schedule: Q01DX009 (ip), vehicle: saline) 5 of 6; (dose: 200.0 mg/kg/injection, schedule: Q01DX009 (ip), vehicle: saline) 0 of 6.

For the molecule `N#CCS(=O)(=O)OCCCl`, the T/C was 126 % of control (dose: 11.0 mg/kg/injection, schedule: Q01DX005 (ip), vehicle: saline with Tween-80); 127 % of control (dose: 16.5 mg/kg/injection, schedule: Q01DX005 (ip), vehicle: saline with Tween-80); 142 and 144 % of control (dose: 25.0 mg/kg/injection, schedule: Q01DX005 (ip), vehicle: saline with Tween-80). Moreover, the survivor count runs as follows: (dose: 50.0 mg/kg/injection, schedule: Q01DX005 (ip), vehicle: saline with Tween-80) 1 of 6 and 3 of 5; (dose: 100.0 mg/kg/injection, schedule: Q01DX005 (ip), vehicle: saline with Tween-80) 0 of 6; under setting [4], 0 of 6.

Consider `CC1CC(C#N)=C(NC#N)NC1=O` (stereo not drawn), for which the T/C was 134 % of control (dose: 30.0 mg/kg/injection, schedule: Q01DX005 (ip), vehicle: saline with Tween-80) and 126 % of control (dose: 30.0 mg/kg/injection, schedule: Q01DX005 (ip), vehicle: saline). Further, the survivor count reads like this: (dose: 60.0 mg/kg/injection, schedule: Q01DX005 (ip), vehicle: saline with Tween-80) 0 of 6; (dose: 60.0 mg/kg/injection, schedule: Q01DX005 (ip), vehicle: saline) 0 of 6; (dose: 120.0 mg/kg/injection, schedule: Q01DX005 (ip), vehicle: saline with Tween-80) 0 of 6; under setting [2], 0 of 6.

As to `Cc1c[n+]2ccc3ccccc3c2c2ccccc12`, the T/C (dose: 5.0 mg/kg/injection, schedule: Q01DX009 (ip), vehicle: Klucel (hydroxypropylcellulose) (HPC)) was 133 % of control. For the same molecule, the survivor count runs as follows: (dose: 7.5 mg/kg/injection, schedule: Q01DX009 (ip), vehicle: Klucel (hydroxypropylcellulose) (HPC)) 3 of 6; (dose: 10.0 mg/kg/injection, schedule: Q01DX009 (ip), vehicle: Klucel (hydroxypropylcellulose) (HPC)) 0 of 6; (dose: 20.0 mg/kg/injection, schedule: Q01DX009 (ip), vehicle: Klucel (hydroxypropylcellulose) (HPC)) 0 of 6.

`NNC(=O)N/N=C/c1ccccc1Cl`: the survivor count under setting [3] was 0 of 6 and the survivor count under setting [1] is listed as 0 of 6.

Values taken from PubChem BioAssay AID330 (DTP/NCI, 2004).
